Measurements from publication PMC6627515.

Sequences of proteins named here, by UniProt entry; tags and fusion partners are left off. A change or cut given only in a name is not applied to a line headed by its entry.
UniProt B7F1Z4: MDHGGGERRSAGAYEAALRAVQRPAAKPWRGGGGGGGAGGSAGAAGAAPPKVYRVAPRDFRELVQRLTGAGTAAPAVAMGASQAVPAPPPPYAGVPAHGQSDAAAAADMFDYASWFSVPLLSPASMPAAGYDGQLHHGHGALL

Target: OsVQ13 green fluorescent protein (GFP) fusion protein (rice (Oryza sativa L.)) (UniProt B7F1Z4)
Assay: affinity purification with mass spectrometry; nuclear proteins of OsVQ13GFP-ox rice leaf blades incubated with magnetic bead-conjugated GFP-Trap overnight at 4 °C, washed five times; eluted proteins separated by SDS-PAGE, Oriole-stained bands identified by MALDI-TOF MS; five independent experiments; GFP-ox plants as negative control

Row | Binder | binding
1 | NAC domain-containing protein 5 (OsNAC5) (protein, UniProt Q53NF7 1-329) MECGGALQLPPGFRFHPTDDELVMYYLCRKCGGLPLAAPVIAEVDLYKFNPWDLPERAMGGEKEWYFFSPRDRKYPNGQRPNRAAGTGYWKATGADKPVGSPRAVAIKKALVFYAGKPPKGVKTNWIMHEYRLADVDRSAAARKLSKSSHNALRLDDWVLCRIYNKKGVIERYDTVDAGEDVKPAAAAAAAKGGRIGGGGGAAAMKVELSDYGFYDQEPESEMLCFDRSGSADRDSMPRLHTDSSGSEHVLSPSPSPDDFPGGGDHDYAESQPSGGCGGWPGVDWAAVGDDGFVIDSSLFELPSPAAFSRAAGDGAAFGDMFTYLQKPF | binds
2 | MADS-box transcription factor 2 (OsMADS2) (protein, UniProt Q40702 1-209) MGRGKIEIKRIENSTNRQVTFSKRRSGILKKAREISVLCDAEVGVVIFSSAGKLYDYCSPKTSLSRILEKYQTNSGKILWDEKHKSLSAEIDRIKKENDNMQIELRHLKGEDLNSLQPKELIMIEEALDNGIVNVNDKLMDHWERHVRTDKMLEDENKLLAFKLHQQDIALSGSMRDLELGYHPDRDFAAQMPITFRVQPSHPNLQENN | binds

No constants are given. Whether binding was seen depends on the method and setting. Binding seen in cells or lysates may run through a third protein. These calls come from enrichment with a bait or labelling near it, and not all partners need be listed.
